These are yes or no findings as the source states them, for the method shown. In cells and extracts the contact can be indirect. Sequences can lack the tags named with a protein.
Key:
Test in all cases: co-IP; the beads of the VIP assay (EGFP-fused protein precipitated with GST-tagged anti-GFP Nb from HEK293T lysates) subjected to SDS-PAGE and immunoblotting with anti-mChe or anti-GFP antibody
[1] = molecular target: T1, EGFP-fused BROMI(1,102–1,298) (human) (UniProt Q96NH3)
T1 sequence: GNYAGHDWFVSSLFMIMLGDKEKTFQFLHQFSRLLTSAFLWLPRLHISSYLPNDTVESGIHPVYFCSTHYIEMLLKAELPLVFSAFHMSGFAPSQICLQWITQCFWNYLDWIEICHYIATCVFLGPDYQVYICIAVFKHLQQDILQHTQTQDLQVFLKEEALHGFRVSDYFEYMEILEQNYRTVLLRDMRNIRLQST

[2] = molecular target: T2, EGFP-fused BROMI(1–1,101) (human) (UniProt Q96NH3)
T2 sequence: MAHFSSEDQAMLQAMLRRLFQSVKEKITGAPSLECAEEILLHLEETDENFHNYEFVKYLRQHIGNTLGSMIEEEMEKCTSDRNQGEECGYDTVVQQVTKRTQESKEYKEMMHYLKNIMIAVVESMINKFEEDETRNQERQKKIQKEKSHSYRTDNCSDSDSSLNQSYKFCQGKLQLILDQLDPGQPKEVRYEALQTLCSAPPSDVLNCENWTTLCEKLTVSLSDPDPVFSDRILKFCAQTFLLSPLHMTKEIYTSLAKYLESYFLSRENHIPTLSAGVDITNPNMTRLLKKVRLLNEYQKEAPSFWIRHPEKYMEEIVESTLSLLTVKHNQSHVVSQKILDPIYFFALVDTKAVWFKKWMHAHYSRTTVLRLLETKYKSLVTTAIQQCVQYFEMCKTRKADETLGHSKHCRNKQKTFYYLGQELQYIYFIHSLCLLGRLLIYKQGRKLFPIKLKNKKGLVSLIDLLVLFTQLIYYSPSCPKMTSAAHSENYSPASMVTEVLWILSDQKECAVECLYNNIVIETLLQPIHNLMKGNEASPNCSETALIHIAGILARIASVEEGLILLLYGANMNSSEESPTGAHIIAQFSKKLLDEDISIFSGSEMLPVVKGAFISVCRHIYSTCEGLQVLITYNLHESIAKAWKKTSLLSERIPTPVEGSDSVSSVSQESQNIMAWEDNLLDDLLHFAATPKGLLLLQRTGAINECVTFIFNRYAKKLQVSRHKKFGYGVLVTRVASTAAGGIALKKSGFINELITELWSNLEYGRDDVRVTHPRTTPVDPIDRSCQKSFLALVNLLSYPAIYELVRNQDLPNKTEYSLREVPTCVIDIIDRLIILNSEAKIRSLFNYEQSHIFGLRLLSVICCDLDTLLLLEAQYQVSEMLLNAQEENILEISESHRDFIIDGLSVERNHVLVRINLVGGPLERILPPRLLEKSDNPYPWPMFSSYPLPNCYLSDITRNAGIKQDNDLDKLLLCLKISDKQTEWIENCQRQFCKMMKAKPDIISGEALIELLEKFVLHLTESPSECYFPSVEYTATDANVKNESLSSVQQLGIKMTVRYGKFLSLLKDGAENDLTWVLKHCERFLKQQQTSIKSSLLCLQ

[3] = molecular target: T3, EGFP-fused BROMI(1–1,190) (human) (UniProt Q96NH3)
T3 sequence: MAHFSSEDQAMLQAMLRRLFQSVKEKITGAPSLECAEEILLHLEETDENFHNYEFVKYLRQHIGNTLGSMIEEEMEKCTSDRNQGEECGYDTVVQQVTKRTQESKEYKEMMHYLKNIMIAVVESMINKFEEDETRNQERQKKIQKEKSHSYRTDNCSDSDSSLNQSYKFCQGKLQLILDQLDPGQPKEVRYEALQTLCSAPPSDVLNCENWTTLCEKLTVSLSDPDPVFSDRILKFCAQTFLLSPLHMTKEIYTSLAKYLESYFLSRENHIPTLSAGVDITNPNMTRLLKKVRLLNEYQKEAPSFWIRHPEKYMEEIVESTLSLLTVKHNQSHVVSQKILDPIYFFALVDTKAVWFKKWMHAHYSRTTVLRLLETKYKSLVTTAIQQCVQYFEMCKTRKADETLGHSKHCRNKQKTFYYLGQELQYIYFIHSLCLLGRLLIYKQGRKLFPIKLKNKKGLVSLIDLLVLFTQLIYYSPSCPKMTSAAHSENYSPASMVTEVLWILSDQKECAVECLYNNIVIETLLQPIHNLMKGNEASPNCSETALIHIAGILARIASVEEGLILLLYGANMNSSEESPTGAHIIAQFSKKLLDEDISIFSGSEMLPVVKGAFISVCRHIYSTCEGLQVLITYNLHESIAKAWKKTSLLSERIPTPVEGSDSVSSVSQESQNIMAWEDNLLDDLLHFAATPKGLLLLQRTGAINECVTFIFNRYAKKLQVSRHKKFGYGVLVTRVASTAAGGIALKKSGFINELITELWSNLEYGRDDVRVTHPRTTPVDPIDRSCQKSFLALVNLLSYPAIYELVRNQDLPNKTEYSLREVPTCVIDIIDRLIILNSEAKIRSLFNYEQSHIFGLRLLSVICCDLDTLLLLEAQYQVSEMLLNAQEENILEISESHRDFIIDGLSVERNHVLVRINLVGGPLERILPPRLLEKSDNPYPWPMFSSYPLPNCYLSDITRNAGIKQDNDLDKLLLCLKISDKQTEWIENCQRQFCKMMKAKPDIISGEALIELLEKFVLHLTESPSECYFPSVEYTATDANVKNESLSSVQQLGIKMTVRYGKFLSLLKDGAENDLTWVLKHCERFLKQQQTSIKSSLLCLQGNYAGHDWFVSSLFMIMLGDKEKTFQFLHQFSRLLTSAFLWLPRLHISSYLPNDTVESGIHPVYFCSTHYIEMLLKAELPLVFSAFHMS

binding [1]: no binding | binding [2]: no binding | binding [3]: no binding
Substance: CCRK-mChe (from UniProt Q8IZL9-1 1-346)

From PMC8500422
